According to PubChem BioAssay AID493014 (National Center for Advancing Translational Sciences (NCATS), 2011):
The list shows a part of the results. These are further read-outs of the screen, such as a control signal, another cell line or another target. No call is given for them. Most of these compounds were active or inconclusive in the main read-out, so they are no random draw. Potencies come from curve fits of mixed quality, noted in brackets.

Experiment: qHTS Assay to Find Inhibitors of Chronic Active B-Cell Receptor Signaling
Conditions: ABC-DLBCL IkBa-CBG/CBR reporter, luminescence ratio (green luciferase fused to IkBa over red control in TMD8 lymphoma cells), 4 h
Summary of the method: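 Concentration-response series (up to 46 uM) were applied to TMD8 dual-reporter cells for 4 h at 37C with doxycycline. Green/red ratio, after filter-overlap correction, defined %Activity; red signal alone was normalised to basal cells and zero luminescence.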

[1] = measured here: CBR red luminescence, cell number
[2] = measured here: IkBa-CBG green luminescence

Compound | AC50 [1] | AC50 [2]
COc1ccccc1N1CCN(C(=O)C(Sc2ccccc2)c2ccccc2)CC1 (configuration not stated) | 5.8 µM [falling, partial curve, poor fit] | 23.1 µM [rising, partial curve, poor fit]
CC(=O)Nc1ccc(S(=O)(=O)Nc2nc3ccccc3nc2Nc2ccc(O)c(C(=O)O)c2)cc1 | 11.2 µM [falling, partial curve, poor fit] | 
Nc1cccc(C(=O)N/N=C/c2ccsc2)c1 | 7.94 µM [falling, partial curve] | 
O=C(CSc1nnc(-c2ccc(Cl)cc2)c(-c2ccc(Cl)cc2)n1)NC1CCCC1 | 35.5 µM [falling, single point] | 
S=C(Nc1cccc(Cl)c1)N(CCCN1CCCC1)Cc1cccn1Cc1ccc(Cl)cc1 | 22.4 µM [falling, single point] | 
Oc1ccc(Nc2nc(Cl)nc(NCc3ccco3)n2)cc1 | 16.4 µM [falling, partial curve] | 
CCn1c(=O)c(C(=O)NNC(=O)c2ccccc2)c(O)c2ccccc21 | 14.1 µM [falling, partial curve, poor fit] | 
CCOC(=O)Cn1cc([N+](=O)[O-])c(OC)n1 | 5.8 µM [falling, full curve, poor fit] | 
O=C(CNC(=O)c1ccc(Br)o1)Nc1ccc(F)c(S(=O)(=O)N2CCOCC2)c1 | 14.6 µM [falling, partial curve] | 
COc1ccc(CCN(C)C(=O)C2CCN(Cc3cccc(OC)c3OC)CC2)cc1OC | 0.112 µM [falling, full curve, poor fit] | 
O=C(NCCc1c[nH]c2ccccc12)c1cc(Cl)c2c(c1)OCO2 | 3.98 µM [falling, partial curve, poor fit] | 
COc1cc(C2=CN(Cc3ccccc3)CCC2=O)cc(OC)c1OC | 14.6 µM [rising, partial curve, poor fit] | 
CC(C)c1ccc(NC(=O)C2C3C=CC4(O3)C2C(=O)N(CCCN2CCCCC2)C4C(=O)NC2CCCCC2)cc1 (configuration not stated) | 0.0891 µM [rising, full curve, poor fit] | 
CCn1c(=O)c(C(=O)NCCc2ccccc2)c(O)c2ccccc21 | 2.06 µM [falling, full curve] | 
Nc1ncnc2c1ncn2[C@@H]1O[C@H](CNS(=O)(=O)c2cc3ccccc3s2)[C@@H](O)[C@H]1O |  | 6.51 µM [falling, partial curve, poor fit]
O=C(Cc1ccc(Cl)cc1)NCC(=O)N1CCCC1 | 5.17 µM [falling, full curve, poor fit] | 
CC(C)OC(=O)c1nnc(-c2ccccc2)nc1OC(C)C | 25.9 µM [falling, single point] | 
Cc1ccc(S(=O)(=O)N(CC(=O)NCCC2=CCCCC2)Cc2ccccc2F)cc1 |  | 14.1 µM [rising, partial curve, poor fit]
CCn1c(C)nc2cc(C(N)=O)ccc21 | 1.78 µM [rising, partial curve, poor fit] | 
COc1cc(/C=N/NC(N)=S)ccc1OCc1ccc(C)cc1 | 14.6 µM [falling, single point] | 
O=C(Nc1ccc(S(=O)(=O)Nc2cnc3ccccc3n2)cc1)c1ccccc1Br | 35.5 µM [falling, single point] | 
COc1ccc(C(C(=O)NC2CCCC2)N(C(=O)c2snc(-c3ccc(F)cc3)c2N)c2ccccc2)cc1 (configuration not stated) | 7.94 µM [rising, partial curve, poor fit] | 

Compound | AC50 [1] | AC50 [2]
CC(=O)Nc1cccc(NC(=O)Nc2cccc3ccccc23)c1 | 0.355 µM [falling, full curve] | 
CCCCNC(=O)OCC(CC)NC(=O)OCC(C)C (configuration not stated) | 28.2 µM [falling, partial curve, poor fit] | 
Cc1ccccc1-c1nc(CN(C)C(C)c2ccon2)c(C)o1 (configuration not stated) | 3.98 µM [rising, single point] | 
CCOC(=O)N1CCC(N2CCCC(C(=O)c3ccc4cc(OC)ccc4c3)C2)CC1 (configuration not stated) | 11.2 µM [falling, single point] | 
COc1ccc(CNC(=O)CSCc2ccccc2Cl)cc1 | 23.1 µM [rising, partial curve] | 29.1 µM [falling, single point]
O=C(CSc1ccccn1)Nc1nonc1[N+](=O)[O-] | 7.94 µM [falling, partial curve] | 
Cc1cc(C)cc(NC(=O)CN(C)S(=O)(=O)c2cnc[nH]2)c1 | 32.6 µM [rising, single point] | 
O=C(NC(Cc1ccccc1)c1ccc2c(c1)OCCCO2)c1ccccc1 (configuration not stated) | 16.4 µM [rising, single point] | 
CC12CC3CC(C)(C1)CC(C(=O)NC1=NCCS1)(C3)C2 | 0.731 µM [rising, full curve, poor fit] | 
O=C(Cc1c[nH]c2ccccc12)Nc1nnc(C2CC2)s1 | 12.6 µM [falling, single point] | 
Cc1cc(O)c(-c2n[nH]c3c2C(c2cccc(O)c2)N(Cc2cccnc2)C3=O)cc1Cl (configuration not stated) | 0.326 µM [falling, full curve, poor fit] | 
COc1cccc(/C=N/NC(=O)Cn2cnc3c2c(=O)n(C)c(=O)n3C)c1OC | 0.708 µM [rising, full curve, poor fit] | 
Cc1cc(C)c2c(=O)n(CC(=O)Nc3cccc(F)c3)sc2n1 | 35.5 µM [rising, single point] | 
COc1ccc(NC(=O)c2[nH]c(C)c(C(C)=O)c2C)cc1 | 10 µM [rising, partial curve] | 
COc1ccc(N2CCN(C(=O)CN3C(=O)NC(C)(c4ccc5ccccc5c4)C3=O)CC2)cc1 (configuration not stated) | 25.9 µM [falling, single point] | 
Cc1cc(-c2ccccc2)nc(N/N=C/c2ccco2)n1 | 12.6 µM [falling, partial curve, poor fit] | 
CCOC(=O)c1sc(-c2ccc(F)cc2)cc1N | 0.326 µM [rising, partial curve, poor fit] | 
Cc1oc(-c2ccccc2)cc1C(=O)Nc1cccc(/C=C/C(=O)O)c1 | 11.2 µM [falling, single point] | 0.112 µM [rising, full curve, poor fit]
CCOC(=O)c1ccc(NC(=O)c2cc(S(=O)(=O)N3CCOCC3)ccc2O)cc1 | 4.61 µM [falling, full curve] | 
CCOc1ncccc1C(=O)OCC(=O)Nc1ccc(-c2nc3ccc(C)cc3s2)cc1 | 0.731 µM [rising, partial curve, poor fit] | 
COc1ccc(-n2c(-c3cc(-c4ccccc4)sc3N)n[nH]c2=S)cc1 | 15.8 µM [falling, single point] | 
Nc1nccnc1C(=O)N/N=C/c1ccco1 | 22.4 µM [falling, single point] | 

17 entries from above, with tabs:
Compound	AC50 [1]	AC50 [2]
CCCCNC(=O)OCC(CC)NC(=O)OCC(C)C (configuration not stated)	28.2 µM [falling, partial curve, poor fit]	
Cc1ccccc1-c1nc(CN(C)C(C)c2ccon2)c(C)o1 (configuration not stated)	3.98 µM [rising, single point]	
CCOC(=O)N1CCC(N2CCCC(C(=O)c3ccc4cc(OC)ccc4c3)C2)CC1 (configuration not stated)	11.2 µM [falling, single point]	
COc1ccc(CNC(=O)CSCc2ccccc2Cl)cc1	23.1 µM [rising, partial curve]	29.1 µM [falling, single point]
O=C(CSc1ccccn1)Nc1nonc1[N+](=O)[O-]	7.94 µM [falling, partial curve]	
Cc1cc(C)cc(NC(=O)CN(C)S(=O)(=O)c2cnc[nH]2)c1	32.6 µM [rising, single point]	
O=C(NC(Cc1ccccc1)c1ccc2c(c1)OCCCO2)c1ccccc1 (configuration not stated)	16.4 µM [rising, single point]	
CC12CC3CC(C)(C1)CC(C(=O)NC1=NCCS1)(C3)C2	0.731 µM [rising, full curve, poor fit]	
O=C(Cc1c[nH]c2ccccc12)Nc1nnc(C2CC2)s1	12.6 µM [falling, single point]	
Cc1cc(O)c(-c2n[nH]c3c2C(c2cccc(O)c2)N(Cc2cccnc2)C3=O)cc1Cl (configuration not stated)	0.326 µM [falling, full curve, poor fit]	
COc1cccc(/C=N/NC(=O)Cn2cnc3c2c(=O)n(C)c(=O)n3C)c1OC	0.708 µM [rising, full curve, poor fit]	
Cc1cc(C)c2c(=O)n(CC(=O)Nc3cccc(F)c3)sc2n1	35.5 µM [rising, single point]	
COc1ccc(NC(=O)c2[nH]c(C)c(C(C)=O)c2C)cc1	10 µM [rising, partial curve]	
COc1ccc(N2CCN(C(=O)CN3C(=O)NC(C)(c4ccc5ccccc5c4)C3=O)CC2)cc1 (configuration not stated)	25.9 µM [falling, single point]	
Cc1cc(-c2ccccc2)nc(N/N=C/c2ccco2)n1	12.6 µM [falling, partial curve, poor fit]	
CCOC(=O)c1sc(-c2ccc(F)cc2)cc1N	0.326 µM [rising, partial curve, poor fit]	
Cc1oc(-c2ccccc2)cc1C(=O)Nc1cccc(/C=C/C(=O)O)c1	11.2 µM [falling, single point]	0.112 µM [rising, full curve, poor fit]

Going on with the list.

Compound | AC50 [1] | AC50 [2]
Cc1ccc(OCc2ccc(C(=O)O)o2)cc1C | 5.01 µM [falling, partial curve] | 
Cc1cc(C(=O)OCC(=O)NC(=O)NC(C)(C)C)c(C)o1 | 14.1 µM [falling, single point] | 
CCn1c(=O)cc(SCC(=O)NCCCN2CCN(c3ccccc3F)CC2)c2ccccc21 | 22.4 µM [falling, partial curve] | 
Cc1ccc(N(CCO)C(=S)Nc2ccccc2)cc1 | 35.5 µM [rising, single point] | 
O=C(Nc1cccs1)Nc1cccnc1Cl | 1.26 µM [falling, full curve, poor fit] | 
CCNc1nnc(CCn2nc(C)c(Br)c2C)s1 | 1.26 µM [rising, full curve, poor fit] | 
O=C(c1ccccc1)c1ccccc1NC(=O)C1CCCN1Cc1ccccc1 (configuration not stated) | 2 µM [rising, full curve] | 
CN(C)C(=O)c1ccc2c3c(cccc13)CC2 | 35.5 µM [rising, single point] | 
COCCCOc1ccnc(CS(=O)c2nc3ccccc3[nH]2)c1C (configuration not stated) | 35.5 µM [falling, single point] | 
Nn1c(SC/C=C/c2ccccc2)nnc1-c1ccccn1 | 3.98 µM [rising, full curve, poor fit] | 
NC(=O)c1cc[n+](CC(=O)NC(=O)Nc2ccccc2)cc1 | 0.731 µM [rising, partial curve, poor fit] | 
CCN(CC(=O)NCCC1=CCCCC1)S(=O)(=O)c1ccccc1 | 10 µM [rising, partial curve, poor fit] | 
COc1ccccc1OC(=O)c1cc(Cl)nc2ccccc12 | 0.82 µM [rising, partial curve, poor fit] | 
Cc1cccc2nc3c(nc12)CCCC3 | 0.398 µM [rising, partial curve, poor fit] | 
CCc1ccc(C(=O)Nc2cc3c(cc2Cl)OCCCO3)cc1 | 22.4 µM [rising, single point] | 
CC(C)Sc1nc(C(F)(F)F)cc(=O)n1-c1ccccc1 | 15.8 µM [rising, partial curve, poor fit] | 
O=C(NC(c1ccccc1)c1c(O)ccc2ccccc12)c1ccccc1Cl (configuration not stated) | 35.5 µM [falling, single point] | 
Cc1ccc(C)c(C(=O)N2CCC(n3nccc3NC(=O)C3CC3)CC2)c1 | 17.8 µM [rising, partial curve, poor fit] | 
C=CCNC(=O)c1onc(CSc2ccc(Cl)cc2)c1C(=O)O | 35.5 µM [falling, single point] | 
O=C(CNc1cccc([N+](=O)[O-])c1)NC(=O)NC1CCCCC1 | 23.1 µM [falling, partial curve, poor fit] | 
